Results are given in words; binding and its absence hold for the method and conditions named. Binding seen in cells or lysates may run through a third protein. For part of these data: A result given as binding can be weak or reduced; the word gives no strength. For part of these data: Where a sequence is shown, tags or fusion partners need not be part of it. Blank lines part the entries; values can stand above or below the binder they belong to.
What was measured:
PTCH1-HA = assay: co-immunoprecipitation (anti-GFP IP, anti-HA blot), COS7 lysates
Disp1-YFP = assay: co-immunoprecipitation (anti-GFP IP), COS7 lysates
Smo-GFP = assay: co-immunoprecipitation (anti-GFP IP), COS7 lysates

binding (PTCH1-HA): binds
B1: BOC-GFP (receptor, mouse, UniProt Q6AZB0 26-1110, looked up, not shown: large carriers)
chain: DLNEVPQVTVQPMSTVQKLGGTVILGCVVEPPWMNVTWRFNGKELNGSDDALGVFITRGTLVIAALNNHTVGRYQCVARMPAGAVASVPATVTLANLQDFKLDVQHVIEVDEGNTAVIACHLPESHPKAQVRYSVKQEWLEASRDNYLIMPSGNLQIVNASQEDEGMYKCAAYNPVTQEVKTSGSGDRLRVRRSTAEAARIIYPLEAQTVIVTKGQSLILECVASGIPPPRVTWAKDGSSIAAYNKTRFLLSNLLIDTTSEEDSGTYRCMASNGVGDPGAAVILYNVQVFEPPEVTVELSQLVIPWGQSAKLTCEVRGNPPPSVLWLRNAVPLTSSQRLRLSRRALRVVSVGPEDEGVYQCMAENAVGSAHAVVQLRTARPDTTLRPGRDTKPIAATPPMPPSRPSRPDQMLREQPGLVKPPTSSVQPTSLKCPGEEQVAPAEAPIILSSPRTSKTDSYELVWRPRHEGSSRTPILYYVVKHRKVTNSSDDWTISGIPANQHRLTLTRLDPGSLYEVEMAAYNCAGEGQTAMVTFRTGRRPKPEIVASKEQQIQRDDPGASLQSSSQPDHGRLSPPEAPDRPTISTASETSVYVTWIPRGNGGFPIQSFRVEYKKLKKVGDWILATSAIPPSRLSVEITGLEKGISYKFRVRALNMLGESEPSAPSRPYVVSGYSGRVYERPVAGPYITFTDAVNETTIMLKWMYIPASNNNTPIHGFYIYYRPTDSDNDSDYKKDMVEGDRYWHSISHLQPETSYDIKMQCFNEGGESEFSNVMICETKARKFSGQPGRPPPLTLAPPQPPPLETMERPVGTGAMVARASDLPYLIVGVVLGSIVLIIVTFIPFCLWRAWSKQKHTTDLGFPRSALLSSSCQYTMVPLEGLPGHQANGQPYLGGVSGRACVSRVHGSRGCPAATVGCPGRKPQQHCPGELAQQREDTNSQLRQPIVSNGYDLQNQQVARGPQCASGVGAFLYTLPDDSTHQLLQPQDCCHLQKQPVTTCQTAVRRTSESPGLESSWDPPYHSGPRCCLGLVPVEEVDSSDSCQVGGGDWSSQHPSGTYTGQERGMRFSPSPSVHVSFETPPPTI

binding (Disp1-YFP): no binding
binding (Smo-GFP): no binding
B2: GAS1 (receptor, mouse, UniProt Q01721 39-315, looked up)
chain: LAHGRRLICWQALLQCQGEPDCSYAYSQYAEACAPVLAQRGGADAPGPAGAFPASAASSPRWRCPSHCISALIQLNHTRRGPALEDCDCAQDEHCRSTKRAIEPCLPRTSSVGPGAGAGSVMGCTEARRRCDRDSRCNLALSRYLAYCGKLFNGLRCTDECRAVIEDMLAVPKAALLNDCVCDGLERPICESVKENMARLCFGPDASNGPGSSGSDGGLDDYYDEEYDDEQRAGAAGGEQPLDDDDGLARPGGGAAAAGGRGDLPHGPGRRSSSSGS

— patent US20140079713A1
